Results on 64 compounds are retold here after PMC10443802 (JCI Insight, 2023).

This data set has as its system OATP1B2. The data set is described as follows: Untargeted metabolomics of plasma and DRG, WT vs OATP1B2-deficient mice. The format is in vivo, mouse.
The mark [1] stands for this setting: untargeted metabolomics, WT vs OATP1B2-deficient mice, supplement sheet "Figure 5B".
Setting [2] is: Figure 5B source data (volcano plot), untargeted metabolomics, WT vs OATP1B2-deficient mice, log2 fold change of metabolite level.
Setting [3] is: untargeted metabolomics, sheet "Figure 5C", WT vs OATP1B2-deficient mice.
Where [4] appears, read: untargeted metabolomics, WT vs OATP1B2-deficient mice, supplement sheet "Figure 5B" (volcano plot).

Structures are written as SMILES. “And” between values parts separate entries of the source, which are not always exact repeats. Identical values can stand only once. Where a SMILES comes first, the peptide text is derived from it.

Under setting [1], `CC(=O)N[C@@H](CCCN)C(=O)O` [N-alpha-acetylornithine] gave a Log2FoldChange of -0.08927. `CCC/C=C\CCCCCCCC/C=C/C(O)C(CO)NC(=O)CCCCCCCCCCCCCCCCCCCCC` (stereo not drawn) [N-behenoyl-sphingadienine (d18:2/22:0)*]: the Log2FoldChange under setting [2] is reported as -0.5564. Take `CC(=O)NCCC[C@H](N)C(=O)O` [N-delta-acetylornithine]: the Log2FoldChange reads like this: under setting [1], 0.09761; under setting [3], 0.2265. With `O=CNc1ccccc1C(=O)O` [N-formylanthranilic acid], the Log2FoldChange under setting [2] is on record as -0.2345. With `CSCC[C@H](NC=O)C(=O)O` [N-formylmethionine], under setting [3], the Log2FoldChange was 0.263. Consider `O=CNC(Cc1ccccc1)C(=O)O` (stereo not drawn) [N-formylphenylalanine], for which the Log2FoldChange was -0.2176 under setting [2] and 0.111 under setting [3]. For `O=C(CO)N[C@H]1[C@H]([C@H](O)[C@H](O)CO)OC(O)(C(=O)O)C[C@@H]1O` (stereo partly drawn) [N-glycolylneuraminate], the Log2FoldChange runs as follows: under setting [4], 0.275; under setting [3], 0.02857. `CCCCC/C=C\C/C=C\CCCCCCCC(=O)NCCS(=O)(=O)O` [N-linoleoyltaurine*] came in with a Log2FoldChange under setting [1] of 0.189.

In turn, `CNCCCC(=O)O` [N-methyl-GABA] had a Log2FoldChange under setting [1] of -0.0145 and a Log2FoldChange under setting [3] of 0.3334. As for `CN1CCCCC1C(=O)O` (stereo not drawn) [N-methylpipecolate], the Log2FoldChange under setting [2] is -0.6439. In the case of `CNC(=N)NCCC[C@H](N)C(=O)O` [N-monomethylarginine], the Log2FoldChange (mouse, in vivo) is 0.2388 and 0. `CCCCCCCC(=O)NCC(=O)O` [N-octanoylglycine] had a Log2FoldChange under setting [4] of 0.6781. For `CCCCCCCC/C=C\CCCCCCCC(=O)N[C@@H](CO)C(=O)O` [N-oleoylserine], the Log2FoldChange under setting [3] is 0.251. In the case of `CCCCCCCC/C=C\CCCCCCCC(=O)NCCS(=O)(=O)O` [N-oleoyltaurine], the Log2FoldChange is 0.1763 under setting [1] and 0.3448 under setting [3].

For the compound `CCCCCCCCCCCCC/C=C/C(O)C(CO)NC(=O)CCCCCCCCCCCCCCC` (stereo not drawn) [N-palmitoyl-sphingosine (d18:1/16:0)], the Log2FoldChange is, setting by setting: under setting [1], 0.111; under setting [3], -0.3585. In the same order, the values of `CCCCCCCCCCCCCCCC(=O)NCC(=O)O` [N-palmitoylglycine] are 0.1763 and 0.4436. As for `CCCCCCCCCCCCCCCC(=O)NCCS(=O)(=O)O` [N-palmitoyltaurine], the Log2FoldChange was 0.2265 under setting [4] and 0.3334 under setting [3].

Consider `CCC/C=C\CCCCCCCC/C=C/[C@@H](O)[C@H](CO)NC(=O)CCCCCCCCCCCCCCCCC` [N-stearoyl-sphingadienine (d18:2/18:0)*], for which the Log2FoldChange under setting [3] is on record as -0.152. `CCCCCCCCCCCCC/C=C/C(O)C(CO)NC(=O)CCCCCCCCCCCCCCCCC` (stereo not drawn) [N-stearoyl-sphingosine (d18:1/18:0)*]: the Log2FoldChange is recorded as -0.1681 under setting [1] and -0.6897 under setting [3]. As to `CCCCCCCCCCCCCCCCCC(=O)N[C@@H](CO)C(=O)O` [N-stearoylserine*], the Log2FoldChange by setting is: under setting [2], -1.059; under setting [3], 0.5261.

With `CCCCCCCCCCCCCCCCCC(=O)NCCS(=O)(=O)O` [N-stearoyltaurine], the Log2FoldChange is given as 0.08406 under setting [1] and 0.4005 under setting [3]. For `COc1ccc(C[C@H](N)C(=O)O)cc1` [O-methyltyrosine], the Log2FoldChange under setting [3] was 0.585. For the compound `N[C@@H](Cc1ccc(OS(=O)(=O)O)cc1)C(=O)O` [O-sulfo-L-tyrosine], the Log2FoldChange by setting is: under setting [4], 0.263; under setting [3], 0.189. Taken in the same sequence, the figures for `O=C(O)[C@@H]1CCC=N1` [S-1-pyrroline-5-carboxylate] were 0.6781 and 0.3785. Consider `Nc1ncnc2c1ncn2[C@@H]1O[C@H](CSCC[C@H](N)C(=O)O)[C@@H](O)[C@H]1O` [S-adenosylhomocysteine (SAH)], for which the Log2FoldChange runs as follows: under setting [4], 0.3448; under setting [3], 0.1763. Regarding `C[S+](CCCN)C[C@H]1O[C@@H](n2cnc3c(N)ncnc32)[C@H](O)[C@@H]1O` (stereo partly drawn) [S-adenosylmethioninamine], the Log2FoldChange under setting [3] was determined as 0.251.

Turning to `C[S+](CC[C@H](N)C(=O)[O-])C[C@H]1O[C@@H](n2cnc3c(N)ncnc32)[C@H](O)[C@@H]1O` (stereo partly drawn) [S-adenosylmethionine (SAM)], the Log2FoldChange under setting [3] worked out at 0.5261.

For the compound `CSC[C@H](NC(=O)CC[C@H](N)C(=O)O)C(=O)NCC(=O)O` [S-methylglutathione], the Log2FoldChange runs as follows: under setting [4], 0.251; under setting [3], 0.251.

Consider `C[S+](C)CC[C@H](N)C(=O)[O-]` [S-methylmethionine], for which the Log2FoldChange under setting [1] is -0.1047. As for `CC(=O)OP(=O)(O)O` [acetylphosphate], under setting [3], the Log2FoldChange is listed as -0.1203. On to `O=C(O)C=C(CC(=O)O)C(=O)O` [aconitate [cis or trans]], for which the Log2FoldChange under setting [1] is 0.08406. `Nc1ncnc2c1ncn2[C@@H]1O[C@H](CO)[C@@H](O)[C@H]1OP(=O)(O)O` [adenosine 2'-monophosphate (2'-AMP)]: the Log2FoldChange under setting [3] is 0.189. Turning to `Nc1ncnc2c1ncn2[C@@H]1O[C@H](CO)[C@@H](OP(=O)(O)O)[C@H]1O` [adenosine 3'-monophosphate (3'-AMP)], the Log2FoldChange under setting [3] was 0.02857. As to `Nc1ncnc2c1ncn2[C@@H]1O[C@H](CO)[C@@H](O)[C@H]1O` [adenosine], the Log2FoldChange reads like this: under setting [4], 0.6415; under setting [3], 0.3561.

As to `C[N+](C)(C)C[C@@H](CC(=O)[O-])OC(=O)CCCCC(=O)O` [adipoylcarnitine (C6-DC)], under setting [1], the Log2FoldChange is listed as -0.1681. With `CCCCC/C=C\C/C=C\C/C=C\C/C=C\CCCCCC(=O)O` [adrenate (22:4n6)], under setting [3], the Log2FoldChange is listed as 0.6508. Take `CCCCC/C=C\C/C=C\C/C=C\C/C=C\CCCCCC(=O)O[C@H](CC(=O)[O-])C[N+](C)(C)C` [adrenoylcarnitine (C22:4)*]: under setting [3], the Log2FoldChange is reported as 0.9486. `C[C@H](N)C(=O)O` [alanine] came in with a Log2FoldChange under setting [3] of 0.05658. Under setting [3], `CC(C)C[C@H](NC(=O)[C@H](C)N)C(=O)O` [alanylleucine] (H-Ala-Leu-OH) yielded a Log2FoldChange of 0.3103. As for `NC(=O)NC(NC(N)=O)C(=O)O` [allantoic acid], under setting [2], the Log2FoldChange is -0.1844.

Consider `NC(=O)NC1NC(=O)NC1=O` (stereo not drawn) [allantoin], for which the Log2FoldChange is reported as -0.0145 under setting [1] and 0.1375 under setting [3]. As to `CC(C)CC(O)C(=O)O` (stereo not drawn) [alpha-hydroxyisocaproate], the Log2FoldChange under setting [4] was 1.195. In turn, `CC(C)C(O)C(=O)O` (stereo not drawn) [alpha-hydroxyisovalerate] displayed a Log2FoldChange under setting [4] of 0.7485 and a Log2FoldChange under setting [3] of 1.202.

On to `NC(=O)CCC(=O)C(=O)O` [alpha-ketoglutaramate*], for which the Log2FoldChange by setting is: under setting [4], 0.2388; under setting [3], 0.3219.

The compound `C[C@H](CCC(=O)O)[C@H]1CC[C@H]2[C@@H]3[C@H](O)[C@@H](O)[C@@H]4C[C@H](O)CC[C@]4(C)[C@H]3CC[C@]12C` [alpha-muricholate] registered a Log2FoldChange under setting [4] of 5.499. For the compound `Cn1cncc1C[C@H](NC(=O)CCN)C(=O)O` [anserine], the Log2FoldChange under setting [4] came to 0.6041. Under setting [4], `Nc1ccccc1C(=O)O` [anthranilate] returned a Log2FoldChange of 0.3674. In the case of `CCCCCCCCCCCCCCCCCCCC(=O)O` [arachidate (20:0)], the Log2FoldChange by setting is: under setting [1], -0.1047; under setting [3], -0.1361. `CCCCC/C=C\C/C=C\C/C=C\C/C=C\CCCC(=O)O` [arachidonate (20:4n6)] displayed a Log2FoldChange under setting [3] of 0.263. Under setting [3], `CCCCC/C=C\C/C=C\C/C=C\C/C=C\CCCC(=O)NCCO` [arachidonoyl ethanolamide] came in with a Log2FoldChange of 0.263.

With `CCCCC/C=C\C/C=C\C/C=C\C/C=C\CCCC(=O)O[C@H](CC(=O)[O-])C[N+](C)(C)C` [arachidonoylcarnitine (C20:4)], under setting [4], the Log2FoldChange is on record as 0.9411. `CCCCC/C=C\C/C=C\C/C=C\C/C=C\CCCC(=O)OCC[N+](C)(C)C` [arachidonoylcholine] came in with a Log2FoldChange under setting [1] of 0.02857.

In turn, `CCCCCCCCCCCCCCCCCCCC(=O)NCCO` [arachidoyl ethanolamide (20:0)*] had a Log2FoldChange under setting [3] of 0.08406. Consider `CCCCCCCCCCCCCCCCCCCC(=O)OC(CC(=O)[O-])C[N+](C)(C)C` (stereo not drawn) [arachidoylcarnitine (C20)*], for which the Log2FoldChange runs as follows: under setting [4], 0.4436; under setting [3], 0. Turning to `NC(N)=NCCC[C@H](O)C(=O)O` [argininate*], the Log2FoldChange runs as follows: under setting [4], 0.3448; under setting [3], 0.696. For `O=C1O[C@H]([C@@H](O)CO)C(OS(=O)(=O)O)=C1O` [ascorbic acid 3-sulfate*], the Log2FoldChange under setting [3] is recorded as -0.2863. With `NC(=O)C[C@H](N)C(=O)O` [asparagine], the Log2FoldChange is -0.08927 under setting [1] and 0.2016 under setting [3].

With `N[C@@H](CC(=O)O)C(=O)O` [aspartate], the Log2FoldChange is, setting by setting: under setting [4], 0.2388; under setting [3], 0.08406.

In the case of `O=C(O)CCCCCCCC(=O)O` [azelate (C9-DC)], under setting [3], the Log2FoldChange worked out at 0.4005.

Turning to `CCCCCCCCCCCCC/C=C/[C@@H](O)[C@H](COP(=O)([O-])OCC[N+](C)(C)C)NC(=O)CCCCCCCCCCCCCCCCCCCCC` [behenoyl sphingomyelin (d18:1/22:0)*], the Log2FoldChange reads like this: under setting [1], 0.09761; under setting [3], -0.4344. Regarding `NCCC(=O)O` [beta-alanine], the Log2FoldChange under setting [1] is 0.02857.

Turning to `O=C(O)CC[C@H](NC(=O)C(O)(CC(=O)O)CC(=O)O)C(=O)O` [beta-citrylglutamate], under setting [3], the Log2FoldChange worked out at 0.2016. Turning to `CC(C)(O)CC(=O)O` [beta-hydroxyisovalerate], the Log2FoldChange by setting is: under setting [4], 0.4854; under setting [3], 0.7049. Consider `CC(C)(O)CC(=O)O[C@H](CC(=O)[O-])C[N+](C)(C)C` [beta-hydroxyisovaleroylcarnitine], for which the Log2FoldChange under setting [1] is -0.1047.
